Results: US20140275711A1, “1-(Arylmethyl)-5,6,7,8-tetrahydroquinazolline-2,4-diones and Analogs and the Use Thereof” (Impact Therapeutics, Inc., priority 2011, published 2014)
Some results were stated once for a whole list of compounds, not compound by compound. Some compounds share one range, which may span the group rather than tell each member.

Legend:
[1] = system: Human breast cancer cell line T47D; assay: Potentiation of MMS induced apoptosis, cell based caspase-3 activity assay; conditions: T47D cells with MMS, versus AZD2281;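 also: Caspase-3 activity in cell lysates measured by fluorescence (RFU), EC50 fitted from sigmoidal curve of signal versus log compound concentration in presence of MMS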
[2] = system: SW620 human colorectal cancer cells; assay: Potentiation of the growth inhibiting activity of MMS, MTT based cell viability assay; conditions: SW620 cells with MMS, versus AZD2281

SMILES | folds more active than reference compound AZD2281 (potentiation of MMS induced apoptosis) [1] | folds more active than the reference compound AZD2281 (potentiation of MMS growth inhibition) [2]
O=C(c1ccccc1)N1CCN(C(=O)c2cc(Cn3c4c(c(=O)[nH]c3=O)CCCC4)ccc2F)CC1 [Example 18, 1-(4-Fluoro-3-(4-benzoylpiperazine-1-carbonyl)benzyl)-5,6,7,8-tetrahydroquinazoline-2,4(1H,3H)-dione] | 5-10 folds | –
O=C(c1cc(Cn2c3c(c(=O)[nH]c2=O)CCCC3)ccc1F)N1CCN(c2nccs2)CC1 [Example 23, 1-(4-Fluoro-3-(4-(thiazol-2-yl)piperazine-1-carbonyl)benzyl)-5,6,7,8-tetrahydroquinazoline-2,4(1H,3H)-dione] | – | 3-40 folds
O=C(c1cccc(Cn2c3c(c(=O)[nH]c2=O)CCCC3)c1)N1CCN(c2ncccn2)CC1 [Example 5, 1-(3-(4-(Pyrimidin-2-yl)piperazine-1-carbonyl)benzyl)-5,6,7,8-tetrahydroquinazoline-2,4(1H,3H)-dione] | 5-10 folds | 3-40 folds
O=C(c1cc(Cn2c3c(c(=O)[nH]c2=O)CCCC3)ccc1F)N1CCN(c2ncccn2)CC1 [Example 20] | 5-10 folds | 3-40 folds
